Results on 70 compounds are retold here after the supplement of paper PMC7024190.

Structures can show the parent of a compound that is named as a salt. The list shows a part of the results. Single values are uncertain here, since repeats match poorly.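 Human embryonic kidney cells were transiently transfected with a plasmid bearing a Renilla luciferase gene under the HSV-TK promoter. This first-round screen tests roughly ten thousand compounds for ones that increase reporter output.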

This assay has as its system HEK 293FT. In words: log relative Renilla luciferase luminescence (reporter expression vs reference, reference not stated) (log (base not stated)); higher = higher recombinant reporter expression. The note with it: 10 µM; time after transfection 48 h.
With `CC(C)(C)NC[C@H](O)COc1cccc2c1CCCC2=O` [levobunolol hydrochloride], the log is -0.0317.
Take `C[N+](C)(C)CCOC(N)=O` [carbachol]: the log is -0.0748.
As to `COC(=O)C[C@H]1C2(C)CC34OC5(C)O[C@@]6([C@H](OC)C(OC(=O)C(C)C)[C@]7(C)C(/C(=C(/OC)C(C)C)C(=O)O[C@H]7c7ccoc7)[C@@]6(O5)[C@H](OC)[C@@]3(OC)C2OC(C)=O)[C@]14C` (stereo not given in full) [chukrasin methyl ether], the log is -0.104.
Next, `OC[C@H]1O[C@@H](O[C@H]2[C@H](O)[C@@H](O)C(O)O[C@@H]2CO)[C@H](O)[C@@H](O)[C@H]1O` (stereo not given in full) [lactose monohydrate]: -0.158.
Next, `COC(=O)/C=C/C(=O)OC` [dimethyl fumarate]: -0.0971.
The same measure for `CCOC(=O)C1=C(C)NC(C)=C(C(=O)OC)C1c1cccc(Cl)c1Cl` (stereo not given) [felodipine]: -0.131; for `C[C@H](CCC(=O)O)[C@H]1CC[C@H]2[C@@H]3C(=O)C[C@@H]4CC(=O)CC[C@]4(C)[C@H]3CC(=O)[C@]12C` [dehydrocholic acid]: 0.0596.
As to `C[C@H](CCC(=O)O)[C@H]1CC[C@H]2[C@@H]3C(=O)C[C@@H]4CC(=O)CC[C@]4(C)[C@H]3CC(=O)[C@]12C` [dehydrocholate sodium], the log was 0.0878.
Next, `Cc1nc2sccn2c(=O)c1CCN1CCC(=C(c2ccc(F)cc2)c2ccc(F)cc2)CC1` [ritanserin]: 0.0126; `CO[C@H]1C[C@H](O[C@@H]2/C(C)=C/C[C@@H]3C[C@@H](C[C@]4(CC[C@H](C)[C@@H](C5CCCCC5)O4)O3)OC(=O)[C@@H]3C=C(C)/C(=N/O)[C@H]4OC/C(=C\C=C\[C@@H]2C)[C@]43O)O[C@@H](C)[C@@H]1O` [selamectin]: 0.174.
Next, `O=C1c2c(O)ccc(O)c2C(=O)c2c(NCCNCCO)ccc(NCCNCCO)c21` [mitoxantrone hydrochloride]: -0.927; `CCN(CC)CCNC(=O)c1cc(Br)c(N)cc1OC` [bromopride]: 0.104.
The same measure for `CCCCC(=O)N(Cc1ccc(-c2ccccc2-c2nnn[nH]2)cc1)[C@H](C(=O)O)C(C)C` [valsartan]: 0.0443.
On to `C[C@H]1C(=O)CC[C@@H]2[C@]1(C)CC[C@H]1[C@@]2(C)CC[C@@]2(C)[C@@H]3CC(C)(C)CC[C@]3(C)CC[C@]12C` [friedelin], for which the log was 0.0789.
As for `OC(CCN1CCCCC1)(c1ccccc1)c1ccccc1` [pridinol methanesulfonate], the log was 0.063.
The same measure for `CCCCCCCCCCCC[C@@H](C(=O)O)[C@H](C)C(=O)O` [roccellic acid]: 0.142; for `CC(C)NNC(=O)c1ccncc1` [iproniazid sulfate]: -0.829.
Next, `CSCC[C@H](NC(=O)[C@H](Cc1c[nH]c2ccccc12)NC(=O)CCNC(=O)OC(C)(C)C)C(=O)N[C@@H](CC(=O)O)C(=O)N[C@@H](Cc1ccccc1)C(N)=O` [pentagastrin]: -0.0962; `O=C1c2cccc(O)c2C(=O)c2c(O)cccc21` [danthron]: -0.0586.
Next, `CCOC(N)=O` [urethane]: 0.112.
With `C[C@@H]1CC[C@@]2(OC1)O[C@H]1C[C@H]3[C@@H]4CC=C5C[C@@H](O)CC[C@]5(C)[C@H]4CC[C@]3(C)[C@H]1[C@@H]2C` [diosgenin], the log is 0.033.
The same measure for `O=C(O)c1ccccc1Nc1cccc(C(F)(F)F)c1` [flufenamic acid]: -0.139; for `OCCc1ccccc1` [phenylethyl alcohol]: 0.443.
`CC(=O)Nc1ccc(S(=O)(=O)c2ccc(NC(C)=O)cc2)cc1` [acedapsone]: the log was -0.0392.
Next, `O=C1O[C@H]([C@@H](O)CO)C(O)=C1O` [ascorbic acid]: 0.127; `Clc1ccc(C(c2ccccc2Cl)C(Cl)Cl)cc1` (stereo not given) [mitotane]: -0.139.
Next, `O=C(/C=C/c1ccccc1)c1ccc(O)cc1` [4'-hydroxychalcone]: 0.125; `CCc1cc(Cl)c(OC)c(C(=O)NC[C@@H]2CCCN2CC)c1O` [eticlopride hydrochloride]: -0.0457; `CN(C)CCOC(=O)C(c1ccccc1)C1(O)CCCC1` (stereo not given) [cyclopentolate hydrochloride]: -0.117.
The same measure for `Nc1ccc(/N=N/c2ccccc2)c(N)n1` [phenazopyridine hydrochloride]: 0.136; for `C[C@H](N[C@@H](CCc1ccccc1)C(=O)O)C(=O)N1Cc2ccccc2C[C@H]1C(=O)O` [quinaprilat]: 0.195.
Turning to `CCC(=O)O[C@]1(C(=O)SCF)[C@H](C)C[C@H]2[C@@H]3C[C@H](F)C4=CC(=O)C=C[C@]4(C)[C@@]3(F)[C@@H](O)C[C@@]21C` [fluticasone propionate], the log is 0.0523.
Next, `Cc1c(S(=O)(=O)O)oc2c1C(=O)C(=O)c1c-2ccc2c1CCCC2(C)C` [tanshinone iia sulfonate sodium]: -0.382; `COc1cc(/C=C/C(=O)O)cc(OC)c1O` [sinapic acid]: -0.134; `NCCCS(=O)(=O)O` [tramiprosate]: -0.0483.
Consider `Nc1nc(/C(=C/CC(=O)O)C(=O)N[C@@H]2C(=O)N3C(C(=O)O)=CCS[C@H]23)cs1` [ceftibuten], for which the log was -0.0331.
The same measure for `CCc1nn(CCCN2CCN(c3cccc(Cl)c3)CC2)c(=O)n1CCOc1ccccc1` [nefazodone hydrochloride]: -0.229.
For the compound `O=S(=O)(c1cccc2cnccc12)N1CCCNCC1` [fasudil hydrochloride], the log is -0.0574.
Regarding `C=C[C@@]1(C)CC(=O)[C@@]2(O)[C@](C)(O1)[C@@H](O)[C@@H](O)C1C(C)(C)CC[C@H](O)[C@@]12C` (stereo not given in full) [desacetylcolforsin], the log is 0.0163.
As for `CCCNC(C)(C)COC(=O)c1ccccc1` [meprylcaine hydrochloride], the log was -0.00023.
For the compound `COc1ccc(C(C)=O)c(OC)c1` [peonol methyl ether], the log was 0.0319.
With `CC(NCCc1ccc(O)cc1)C(O)c1ccc(O)cc1` (stereo not given) [ritodrine hydrochloride], the log turned out to be 0.0363.
The same measure for `CC(=O)Nc1ccc(OC(C)=O)cc1` [diacetamate]: -0.0425.
Next, `NC1CCN(c2c(F)cc3c(=O)c(C(=O)O)cn(C4CC4)c3c2Cl)C1` (stereo not given) [clinafoxacin hydrochloride]: -0.152; `CCC1(C)CC(=O)NC1=O` (stereo not given) [ethosuximide]: -0.0286; `O=[N+]([O-])c1ccc(O)c2ncccc12` [nitroxoline]: -0.833.
As to `CCCc1nn(C)c2c(=O)[nH]c(-c3cc(S(=O)(=O)N4CCN(C)CC4)ccc3OCC)nc12` [sildenafil citrate], the log is -0.231.
`CC(O)(CC(=O)O)CC(=O)O` [meglutol]: the log was -0.0639.
The same measure for `O=C1CC[C@]23/C=C/C(=O)NCCCCNCCCNC(=O)/C=C/c4ccc(c2c4)O[C@@H]3C1` [lunarine]: 0.00792; for `CCCCS(=N)(=O)CCC(N)C(=O)O` (stereo not drawn) [l-buthionine sulfoximine]: 0.0358.
Next, `C[C@@H]1CN(c2c(F)c(F)c3c(=O)c(C(=O)O)cn(C4CC4)c3c2F)C[C@H](C)N1` [orbifloxacin]: 0.0323.
Next, `CCC(C)(C)C(=O)O[C@H]1C[C@@H](C)C=C2C=C[C@H](C)[C@H](CC[C@@H]3C[C@@H](O)CC(=O)O3)[C@H]21` [simvastatin]: -0.0484; `CCOC(=O)CC(=O)N1CCSC1COc1ccccc1OC` (stereo not given) [moguisteine]: 0.102.
Consider `CC(=O)Oc1ccc(C(c2ccc(OC(C)=O)cc2)c2ccccn2)cc1` [bisacodyl], for which the log is -0.435.
Next, `CC1(C)CC2C1CC[C@]1(CBr)CCC3C(CC(=O)O)C(=O)O[C@@]32C1` (stereo not given in full) [bromo-3-hydroxy-4-(succin-2-yl)-caryolane gamma-lactone]: 0.0037.
Next, `CC(=O)[C@@]1(O)CC[C@H]2[C@@H]3CCC4=CC(=O)CC[C@]4(C)[C@H]3CC[C@@]21C` [hydroxyprogesterone]: 0.00103; `COC(=O)C(OC)=C(OC)c1ccccc1OC` [methyl trimethoxycinnamate]: 0.227.
On to `O=C(c1ccc(F)cc1)C1CCN(CCn2c(=O)[nH]c3ccccc3c2=O)CC1` [ketanserin tartrate], for which the log worked out at 0.074.
Turning to `CCN(CC)C(=O)c1ccc(O)c(OC)c1` [ethamivan], the log worked out at 0.18.
With `COc1ccc(-c2cc(=O)c3c(O)c(OC)c(OC)c(OC)c3o2)cc1` [gardenin b], the log was -0.0396.
As for `Oc1cc2c(cc1O)C1c3ccc(O)c(O)c3OCC1(O)C2` (stereo not given) [haematoxylin], the log was found to be 0.152.
Next, `CC(=O)O[C@@H]1C[C@H]2C(C)(C)C(=O)C=C[C@]2(C)[C@H]2CC[C@@]3(C)[C@H](c4ccoc4)OC(=O)[C@H]4O[C@]43[C@@]21C` [gedunin]: -0.196.
The same measure for `CCCOc1ccc2[nH]c(NC(=O)OC)nc2c1` [oxibendazole]: 0.269.
Next, `Cc1cc2nc3c(=O)[nH]c(=O)nc-3n(C[C@H](O)[C@H](O)[C@H](O)CO)c2cc1C` [riboflavin]: 0.0209.
With `CC[C@H](C)[C@H]1O[C@]2(C=C[C@@H]1C)C[C@@H]1C[C@@H](C/C=C(\C)[C@@H](O[C@H]3C[C@H](OC)[C@@H](O[C@H]4C[C@H](OC)[C@@H](O)[C@H](C)O4)[C@H](C)O3)[C@@H](C)/C=C/C=C3\CO[C@@H]4[C@H](OC)C(C)=C[C@@H](C(=O)O1)[C@]34O)O2` [avermectin a1a], the log is -0.977.
The same measure for `CN(C)CCOC(c1ccccc1)c1ccccc1.Cn1c(=O)c2[nH]c(Cl)nc2n(C)c1=O` [dimenhydrinate]: 0.0336.
Next, `O=C1NCC2(CCN(CCc3ccccc3)CC2)O1` [fenspiride hydrochloride]: -0.206.
As to `Clc1ccc2c(c1)CCc1cccnc1C2=C1CCNCC1` [desloratidine], the log is 0.0139.
The same measure for `COc1cc(C)c(C(=O)Oc2cc(C)c(C(=O)O)c(O)c2C)c(OC)c1C` [diffractaic acid]: 0.161; for `CC1(C)CC2C1CC[C@]1(C)CCC3C(C(=O)O)CC(=O)O[C@@]32C1` (stereo not given in full) [3-hydroxy-4-(succin-2-yl)-caryolane delta-lactone]: 0.053.
